Laboratory results taken from PMC6381143.
No constants are given. Whether binding was seen depends on the method and setting. In cells and extracts the contact can be indirect. Some results given as binding are weak or reduced against the parent protein; the word gives no strength. For part of these data: Tags and fused reporters may be left off the sequences shown. Values belong to the binder of their own block, whether it stands above or below them.

Amino acid sequences for entries named in this document (tags omitted).
UniProt Q969H0: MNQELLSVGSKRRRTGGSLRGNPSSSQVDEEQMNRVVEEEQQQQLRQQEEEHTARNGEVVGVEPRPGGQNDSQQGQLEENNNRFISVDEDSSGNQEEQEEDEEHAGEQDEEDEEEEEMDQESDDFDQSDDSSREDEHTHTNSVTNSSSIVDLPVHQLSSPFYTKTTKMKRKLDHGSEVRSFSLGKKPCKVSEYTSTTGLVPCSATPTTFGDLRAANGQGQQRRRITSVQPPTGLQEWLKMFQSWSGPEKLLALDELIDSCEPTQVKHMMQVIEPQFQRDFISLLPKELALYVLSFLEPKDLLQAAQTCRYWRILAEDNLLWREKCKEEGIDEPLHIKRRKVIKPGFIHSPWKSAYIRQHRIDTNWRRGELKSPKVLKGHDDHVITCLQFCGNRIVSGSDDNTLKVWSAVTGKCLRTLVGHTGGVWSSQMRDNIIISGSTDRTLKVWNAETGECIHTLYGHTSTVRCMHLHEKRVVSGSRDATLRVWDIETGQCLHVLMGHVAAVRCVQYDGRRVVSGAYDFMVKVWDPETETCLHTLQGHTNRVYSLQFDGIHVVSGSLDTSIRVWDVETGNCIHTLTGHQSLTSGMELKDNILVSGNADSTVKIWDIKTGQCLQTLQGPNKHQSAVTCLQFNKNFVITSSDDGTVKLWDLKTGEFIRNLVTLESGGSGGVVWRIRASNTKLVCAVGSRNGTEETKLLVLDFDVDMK

Experiments:
[1] = target: FBXW7α, exogenous (human) (UniProt Q969H0); experiment: co-IP; exogenous proteins in HEK-293T cells; FBXW7 precipitated, ZEB2 detected by blot
[2] = target: endogenous FBXW7 (human (endogenous in HCT116)) (UniProt Q969H0); experiment: co-IP; endogenous proteins in HCT116 cells (cells with FBXW7 deletion beside them); FBXW7 precipitated, ZEB2 detected by blot
[3] = target: FLAG-Fbxw7 made in TNT-coupled reticulocyte lysate (human) (UniProt Q969H0); experiment: co-IP; IP from TNT-coupled reticulocyte lysate

binding [1]: binds
B1: GFP-ZEB2 (human ZEB2 full-length cDNA in pEGFP-C2) (protein, UniProt O60315 1-1214)
chain: MKQPIMADGPRCKRRKQANPRRKNVVNYDNVVDTGSETDEEDKLHIAEDDGIANPLDQETSPASVPNHESSPHVSQALLPREEEEDEIREGGVEHPWHNNEILQASVDGPEEMKEDYDTMGPEATIQTAINNGTVKNANCTSDFEEYFAKRKLEERDGHAVSIEEYLQRSDTAIIYPEAPEELSRLGTPEANGQEENDLPPGTPDAFAQLLTCPYCDRGYKRLTSLKEHIKYRHEKNEENFSCPLCSYTFAYRTQLERHMVTHKPGTDQHQMLTQGAGNRKFKCTECGKAFKYKHHLKEHLRIHSGEKPYECPNCKKRFSHSGSYSSHISSKKCIGLISVNGRMRNNIKTGSSPNSVSSSPTNSAITQLRNKLENGKPLSMSEQTGLLKIKTEPLDFNDYKVLMATHGFSGTSPFMNGGLGATSPLGVHPSAQSPMQHLGVGMEAPLLGFPTMNSNLSEVQKVLQIVDNTVSRQKMDCKAEEISKLKGYHMKDPCSQPEEQGVTSPNIPPVGLPVVSHNGATKSIIDYTLEKVNEAKACLQSLTTDSRRQISNIKKEKLRTLIDLVTDDKMIENHNISTPFSCQFCKESFPGPIPLHQHERYLCKMNEEIKAVLQPHENIVPNKAGVFVDNKALLLSSVLSEKGMTSPINPYKDHMSVLKAYYAMNMEPNSDELLKISIAVGLPQEFVKEWFEQRKVYQYSNSRSPSLERSSKPLAPNSNPPTKDSLLPRSPVKPMDSITSPSIAELHNSVTNCDPPLRLTKPSHFTNIKPVEKLDHSRSNTPSPLNLSSTSSKNSHSSSYTPNSFSSEELQAEPLDLSLPKQMKEPKSIIATKNKTKASSISLDHNSVSSSSENSDEPLNLTFIKKEFSNSNNLDNKSTNPVFSMNPFSAKPLYTALPPQSAFPPATFMPPVQTSIPGLRPYPGLDQMSFLPHMAYTYPTGAATFADMQQRRKYQRKQGFQGELLDGAQDYMSGLDDMTDSDSCLSRKKIKKTESGMYACDLCDKTFQKSSSLLRHKYEHTGKRPHQCQICKKAFKHKHHLIEHSRLHSGEKPYQCDKCGKRFSHSGSYSQHMNHRYSYCKREAEEREAAEREAREKGHLEPTELLMNRAYLQSITPQGYSDSEERESMPRDGESEKEHEKEGEDGYGKLGRQDGDEEFEEEEEESENKSMDTDPETIRDEEETGDHSMDDSSEDGKMETKSDHEEDNMEDGM

binding [2]: binds
B2: endogenous ZEB2 (protein, UniProt O60315 1-1214)
chain: MKQPIMADGPRCKRRKQANPRRKNVVNYDNVVDTGSETDEEDKLHIAEDDGIANPLDQETSPASVPNHESSPHVSQALLPREEEEDEIREGGVEHPWHNNEILQASVDGPEEMKEDYDTMGPEATIQTAINNGTVKNANCTSDFEEYFAKRKLEERDGHAVSIEEYLQRSDTAIIYPEAPEELSRLGTPEANGQEENDLPPGTPDAFAQLLTCPYCDRGYKRLTSLKEHIKYRHEKNEENFSCPLCSYTFAYRTQLERHMVTHKPGTDQHQMLTQGAGNRKFKCTECGKAFKYKHHLKEHLRIHSGEKPYECPNCKKRFSHSGSYSSHISSKKCIGLISVNGRMRNNIKTGSSPNSVSSSPTNSAITQLRNKLENGKPLSMSEQTGLLKIKTEPLDFNDYKVLMATHGFSGTSPFMNGGLGATSPLGVHPSAQSPMQHLGVGMEAPLLGFPTMNSNLSEVQKVLQIVDNTVSRQKMDCKAEEISKLKGYHMKDPCSQPEEQGVTSPNIPPVGLPVVSHNGATKSIIDYTLEKVNEAKACLQSLTTDSRRQISNIKKEKLRTLIDLVTDDKMIENHNISTPFSCQFCKESFPGPIPLHQHERYLCKMNEEIKAVLQPHENIVPNKAGVFVDNKALLLSSVLSEKGMTSPINPYKDHMSVLKAYYAMNMEPNSDELLKISIAVGLPQEFVKEWFEQRKVYQYSNSRSPSLERSSKPLAPNSNPPTKDSLLPRSPVKPMDSITSPSIAELHNSVTNCDPPLRLTKPSHFTNIKPVEKLDHSRSNTPSPLNLSSTSSKNSHSSSYTPNSFSSEELQAEPLDLSLPKQMKEPKSIIATKNKTKASSISLDHNSVSSSSENSDEPLNLTFIKKEFSNSNNLDNKSTNPVFSMNPFSAKPLYTALPPQSAFPPATFMPPVQTSIPGLRPYPGLDQMSFLPHMAYTYPTGAATFADMQQRRKYQRKQGFQGELLDGAQDYMSGLDDMTDSDSCLSRKKIKKTESGMYACDLCDKTFQKSSSLLRHKYEHTGKRPHQCQICKKAFKHKHHLIEHSRLHSGEKPYQCDKCGKRFSHSGSYSQHMNHRYSYCKREAEEREAAEREAREKGHLEPTELLMNRAYLQSITPQGYSDSEERESMPRDGESEKEHEKEGEDGYGKLGRQDGDEEFEEEEEESENKSMDTDPETIRDEEETGDHSMDDSSEDGKMETKSDHEEDNMEDGM

binding [3]: binds
B3: ZEB2 made in TNT-coupled reticulocyte lysate (protein, UniProt O60315 1-1214)
chain: MKQPIMADGPRCKRRKQANPRRKNVVNYDNVVDTGSETDEEDKLHIAEDDGIANPLDQETSPASVPNHESSPHVSQALLPREEEEDEIREGGVEHPWHNNEILQASVDGPEEMKEDYDTMGPEATIQTAINNGTVKNANCTSDFEEYFAKRKLEERDGHAVSIEEYLQRSDTAIIYPEAPEELSRLGTPEANGQEENDLPPGTPDAFAQLLTCPYCDRGYKRLTSLKEHIKYRHEKNEENFSCPLCSYTFAYRTQLERHMVTHKPGTDQHQMLTQGAGNRKFKCTECGKAFKYKHHLKEHLRIHSGEKPYECPNCKKRFSHSGSYSSHISSKKCIGLISVNGRMRNNIKTGSSPNSVSSSPTNSAITQLRNKLENGKPLSMSEQTGLLKIKTEPLDFNDYKVLMATHGFSGTSPFMNGGLGATSPLGVHPSAQSPMQHLGVGMEAPLLGFPTMNSNLSEVQKVLQIVDNTVSRQKMDCKAEEISKLKGYHMKDPCSQPEEQGVTSPNIPPVGLPVVSHNGATKSIIDYTLEKVNEAKACLQSLTTDSRRQISNIKKEKLRTLIDLVTDDKMIENHNISTPFSCQFCKESFPGPIPLHQHERYLCKMNEEIKAVLQPHENIVPNKAGVFVDNKALLLSSVLSEKGMTSPINPYKDHMSVLKAYYAMNMEPNSDELLKISIAVGLPQEFVKEWFEQRKVYQYSNSRSPSLERSSKPLAPNSNPPTKDSLLPRSPVKPMDSITSPSIAELHNSVTNCDPPLRLTKPSHFTNIKPVEKLDHSRSNTPSPLNLSSTSSKNSHSSSYTPNSFSSEELQAEPLDLSLPKQMKEPKSIIATKNKTKASSISLDHNSVSSSSENSDEPLNLTFIKKEFSNSNNLDNKSTNPVFSMNPFSAKPLYTALPPQSAFPPATFMPPVQTSIPGLRPYPGLDQMSFLPHMAYTYPTGAATFADMQQRRKYQRKQGFQGELLDGAQDYMSGLDDMTDSDSCLSRKKIKKTESGMYACDLCDKTFQKSSSLLRHKYEHTGKRPHQCQICKKAFKHKHHLIEHSRLHSGEKPYQCDKCGKRFSHSGSYSQHMNHRYSYCKREAEEREAAEREAREKGHLEPTELLMNRAYLQSITPQGYSDSEERESMPRDGESEKEHEKEGEDGYGKLGRQDGDEEFEEEEEESENKSMDTDPETIRDEEETGDHSMDDSSEDGKMETKSDHEEDNMEDGM
